The values below come from patent publication US8071774B2, “Heterocyclic spiro-compounds as aldosterone synthase inhibitors” (Novartis AG, priority 2006, dated 2011).

SMILES strings stand for the structures.

For this experiment the following is noted: low-salt diet for 48 hours plus 10 mg/kg furosemide s.c. or i.p. 16 hours (possibly also 2 hours) before start; over a period of 12-24 hours.

As to `NS(=O)(=O)c1cc(C(=O)O)c(NCc2ccco2)cc1Cl` [furosemide], the “increase of plasma aldosterone level” value is 5 to 20 fold.
